Measurements published in publication doi:10.1101/2023.09.12.557426.
Results are given in words; binding and its absence hold for the method and conditions named. Binding seen in cells or lysates may run through a third protein. Some results given as binding are weak or reduced against the parent protein; the word gives no strength.

By UniProt entry, the sequences of proteins in these tests, tags left out. Residues count along the entry.
UniProt P52948, residues 1-880: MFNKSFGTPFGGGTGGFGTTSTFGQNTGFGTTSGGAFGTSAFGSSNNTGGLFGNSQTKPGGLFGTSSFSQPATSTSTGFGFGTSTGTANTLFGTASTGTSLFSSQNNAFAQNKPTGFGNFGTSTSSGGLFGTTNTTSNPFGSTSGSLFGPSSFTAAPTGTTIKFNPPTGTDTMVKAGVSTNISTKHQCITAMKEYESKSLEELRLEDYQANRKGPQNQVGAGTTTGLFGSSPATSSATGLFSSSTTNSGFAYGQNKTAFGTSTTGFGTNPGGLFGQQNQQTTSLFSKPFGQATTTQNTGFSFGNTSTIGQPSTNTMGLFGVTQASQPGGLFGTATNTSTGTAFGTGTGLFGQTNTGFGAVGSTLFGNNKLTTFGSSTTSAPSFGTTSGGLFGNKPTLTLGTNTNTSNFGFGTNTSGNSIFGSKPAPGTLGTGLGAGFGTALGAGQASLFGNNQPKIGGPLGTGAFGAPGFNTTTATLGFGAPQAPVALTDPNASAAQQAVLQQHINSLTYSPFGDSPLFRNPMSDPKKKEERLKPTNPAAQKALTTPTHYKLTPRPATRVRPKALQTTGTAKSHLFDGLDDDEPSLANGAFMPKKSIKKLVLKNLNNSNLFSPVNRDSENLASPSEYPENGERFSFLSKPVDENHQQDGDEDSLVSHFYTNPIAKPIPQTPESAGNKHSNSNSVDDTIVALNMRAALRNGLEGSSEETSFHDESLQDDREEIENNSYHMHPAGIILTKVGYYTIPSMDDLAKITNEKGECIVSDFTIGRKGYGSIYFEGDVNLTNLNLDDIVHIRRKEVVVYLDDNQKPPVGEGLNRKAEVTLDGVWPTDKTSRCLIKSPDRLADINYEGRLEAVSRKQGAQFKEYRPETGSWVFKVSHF

Molecular target: human Nup98 of HeLa cells (human (endogenous in HeLa)) (UniProt P52948)
Experiment: pull-down

binding: binds
B1: human Gle2 from HeLa lysate (protein, UniProt P78406 1-368)
chain: MSLFGTTSGFGTSGTSMFGSATTDNHNPMKDIEVTSSPDDSIGCLSFSPPTLPGNFLIAGSWANDVRCWEVQDSGQTIPKAQQMHTGPVLDVCWSDDGSKVFTASCDKTAKMWDLSSNQAIQIAQHDAPVKTIHWIKAPNYSCVMTGSWDKTLKFWDTRSSNPMMVLQLPERCYCADVIYPMAVVATAERGLIVYQLENQPSEFRRIESPLKHQHRCVAIFKDKQNKPTGFALGSIEGRVAIHYINPPNPAKDNFTFKCHRSNGTNTSAPQDIYAVNGIAFHPVHGTLATVGSDGRFSFWDKDARTKLKTSEQLDQPISACCFNHNGNIFAYASSYDWSKGHEFYNPQKKNYIFLRNAAEELKPRNKK
